This experiment can be described thus: qHTS Assay for Modulators of Lamin A Splicing. Particulars: HeLa LMNA splicing GFP/RFP minigene ratio, 48 h. In a few lines:
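S3 HeLa cells stably expressing lamin A-EGFP splicing minigene plus DsRed2, 600 cells/well, 48 h compound exposure at 37C. Laser-scanning cytometry; analysed as GFP (500-530 nm)/RFP (575-640 nm) total intensity ratio; 0.5% DMSO vehicle.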
(In qHTS, concentration-response curves come from the screen itself.)

The mark [1] stands for this setting: measured here: RFP viability control channel.
The mark [2] stands for this setting: measured here: GFP splicing reporter channel.

The results in this text go back to PubChem BioAssay AID1487 (National Center for Advancing Translational Sciences (NCATS), 2009).

Structures are written as SMILES. The list shows a part of the results. Further columns of the screen follow, without active or inactive calls. The list favours compounds with an active or inconclusive main result. Words in brackets tell the shape of the fitted curve; partial curves, single points and poor fits give uncertain potencies.

On to `COC(=O)c1ccc(OCC(=O)c2ccccc2OC)cc1`, for which the AC50 under setting [1] was 2.24 µM [falling, partial curve].

`O=C(C1CCN(Cc2cn[nH]c2-c2ccc(F)cc2F)CC1)N1CCOCC1`: the AC50 under setting [2] is 0.562 µM [rising, full curve].

As for `Cc1ccc(NC(=O)/C=C/c2ccc([N+](=O)[O-])s2)cc1`, the AC50 is, setting by setting: under setting [2], 2.82 µM [falling, partial curve, poor fit]; under setting [1], 4.47 µM [falling, full curve, poor fit].

In the case of `CCn1c(=O)cc(SCC(=O)Nc2ccc3c(c2)OCCO3)c2ccccc21`, the AC50 under setting [1] was 20 µM [rising, single point].

Regarding `COc1ccc(CCN=CC2=C(O)CC(C)(C)CC2=O)cc1`, under setting [2], the AC50 is 0.794 µM [rising, full curve, poor fit].

Take `Cc1nc2c(C(=O)NCCc3ccc(Cl)cc3)cnn2c(C)c1Cc1c(F)cccc1Cl`: the AC50 under setting [1] was 2.82 µM [rising, partial curve, poor fit].

Regarding `CC(C)CN1C(=O)C(=O)N(CC(=O)N2CCC(Cc3ccccc3)CC2)C1=O`, under setting [2], the AC50 is 1.78 µM [rising, full curve].

As to `CC(=O)Nc1c(C)nn(-c2ccccc2)c1N1CCC(C(=O)NCc2ccc(Cl)cc2)CC1`, the AC50 under setting [2] was 6.31 µM [falling, single point].

Turning to `O=C(NCCc1ccccc1)c1cc(=O)[nH]c2ccccc12`, under setting [2], the AC50 is 0.562 µM [falling, full curve, poor fit].

For `O=C(NCc1cccs1)c1ccc2c(c1)N(Cc1ccccc1Cl)C(=O)c1ccccc1S2`, the AC50 under setting [1] was 6.31 µM [rising, single point].

As to `Cn1c(CSCc2ccccc2)nnc1SCC(=O)Nc1nccs1`, the AC50 under setting [1] was 35.5 µM [rising, single point].

As for `O=C(Nc1cc(S(=O)(=O)N2CCCCC2)ccc1O)c1ccccc1NS(=O)(=O)c1ccc(F)cc1`, the AC50 under setting [1] is 35.5 µM [rising, single point].

Take `Cc1ccccc1N1C(=O)CC1(C#N)c1ccc(OCc2ccccc2)cc1` (configuration not stated): the AC50 is, setting by setting: under setting [2], 15.8 µM [rising, partial curve, poor fit]; under setting [1], 35.5 µM [rising, single point].

Consider `CC1(C)CSC(=NCc2ccccc2)N1C(=O)c1cccc([N+](=O)[O-])c1`, for which the AC50 under setting [1] was 17.8 µM [rising, single point].

On to `CC(C)Oc1ccc(CC(=O)NNC(=S)Nc2ccc(Br)cc2)cc1`, for which the AC50 reads like this: under setting [2], 12.6 µM [rising, partial curve]; under setting [1], 11.2 µM [rising, partial curve, poor fit].

On to `Nc1nc(SCC(=O)N2CCOCC2)n[nH]1`, for which the AC50 under setting [2] was 3.16 µM [falling, full curve, poor fit] and the AC50 under setting [1] was 5.01 µM [falling, full curve, poor fit].

On to `C=C(C)CSc1nc(N)c2c(C)c(C)sc2n1`, for which the AC50 is 35.5 µM [rising, single point] under setting [2] and 15.8 µM [rising, single point] under setting [1].

For the molecule `COc1ccc(CNC(=O)c2cc3cc(C)ccc3n2C)cc1`, the AC50 under setting [2] is 0.251 µM [falling, full curve, poor fit].

Turning to `O=C(Nc1ccncc1)c1ccc2c(c1)C(=O)N(C1CCCCC1)C2=O`, the AC50 under setting [2] is 17.8 µM [rising, partial curve, poor fit] and the AC50 under setting [1] is 15.8 µM [rising, single point].

In the case of `COc1cc(/C=N/NC(=O)c2cccnc2)ccc1OS(=O)(=O)c1ccc(F)cc1`, the AC50 under setting [1] is 35.5 µM [rising, single point].

For `COc1c(OC(C)=O)ccc(/C=C/c2ccc3ccccc3n2)c1[N+](=O)[O-]`, the AC50 under setting [2] was 17.8 µM [rising, single point] and the AC50 under setting [1] was 25.1 µM [rising, single point].

In the case of `Cc1cc(N2C(=O)C3C4C=CC(C4)C3C2=O)ccc1NC(=O)c1cccs1` (configuration not stated), the AC50 runs as follows: under setting [2], 15.8 µM [rising, partial curve, poor fit]; under setting [1], 0.794 µM [rising, full curve, poor fit].

For `Cc1onc(-c2c(Cl)cccc2Cl)c1C(=O)N[C@H]1C(=O)N2[C@H]1SC(C)(C)[C@H]2C(=O)O`, the AC50 reads like this: under setting [2], 0.0562 µM [falling, full curve]; under setting [1], 0.0794 µM [falling, full curve].

As for `CC(=O)Nc1ccccc1OCC(=O)c1ccc2c(c1)OCO2`, the AC50 under setting [1] was 35.5 µM [rising, single point].

Turning to `Cc1ccc(NC(=O)Cc2ccc(Cl)c(Cl)c2)cc1S(=O)(=O)N(C)C`, the AC50 under setting [1] was 25.1 µM [rising, single point].

As for `Cc1cc(C)cc(Nc2cc(-c3ccccc3)nc(C)n2)c1`, the AC50 is 31.6 µM [falling, partial curve] under setting [2] and 35.5 µM [falling, single point] under setting [1].

As to `Cc1ccc(NC(=O)O/N=C/c2cccc([N+](=O)[O-])c2)cc1`, the AC50 under setting [2] was 4.47 µM [rising, single point].

As to `COc1ccc(S(=O)(=O)N2CCCCCC2)cc1N(C)S(=O)(=O)c1ccc(C)cc1`, the half-maximal activity concentration (AC50) under setting [1] was 31.6 µM [rising, single point].

On to `CCC(CC)C(=O)NCc1ccc(Cl)cc1`, for which the AC50 under setting [2] was 0.891 µM [falling, full curve, poor fit].

Consider `COC(=O)c1cccc(NC(=O)Cn2nnc3ccccc32)c1`, for which the AC50 under setting [1] is 22.4 µM [rising, single point].

On to `Cc1ccc(-c2cccc(C(=O)NCCc3ccccc3)n2)c2ccccc12`, for which the AC50 under setting [2] was 11.2 µM [rising, partial curve] and the AC50 under setting [1] is 14.1 µM [rising, partial curve].

Regarding `CCOC(=O)C1CCCN(C(=O)c2ccc3c(=O)n(CCOC)c(=S)[nH]c3c2)C1` (configuration not stated), the AC50 under setting [1] was 14.1 µM [rising, partial curve].

Regarding `CCOc1ccc(NC(=O)CN2CCN(CC(=O)Nc3ccc(Cl)c(C(F)(F)F)c3)CC2)cc1`, the concentration at half-maximal activity (AC50) under setting [1] was 35.5 µM [rising, single point].

As to `S=C(Nc1ccc(Oc2ccccc2)cc1)N(CCCN1CCOCC1)Cc1ccccn1`, the AC50 under setting [2] was 12.6 µM [falling, partial curve, poor fit].

In the case of `CCn1c(SCc2ccccc2)nnc1-c1cccnc1`, under setting [1], the AC50 is 2.51 µM [falling, full curve, poor fit].

As to `Cc1c(Cl)c([N+](=O)[O-])nn1CCCC(=O)Nc1cc(Cl)ccc1Cl`, the concentration at half-maximal activity (AC50) under setting [1] is 12.6 µM [rising, partial curve].

Usually AC50 stands for the concentration at which the activity in the assay is half-maximal.
